Data from US20090012088A1 (priority 2005, published 2009).
Entries after “also recorded” stand apart in the source; their conditions may differ.

Experiments:
[1] = system: DNA; assay: DNA intercalation by change in absorbance spectra upon DNA addition; assay type: binding; details: absorbance spectra with increasing DNA concentration
[2] = system: MPTP-treated C57 Black mice; assay: MPTP mouse model of PD, striatal monoamine levels; assay type: in vivo
Method: As a prelude to assessment of PIP-1 in a mouse model of PD, the ability of PIP-1 to penetrate the blood-brain-barrier is first assessed. PIP-1 is injected i.p. at a dose of 50 mg/kg, and mice are sacrificed at 1 and 2 h post injection. After sacrifice, to establish the presence of PIP-1 in the brain the striatum was dissected, sonicated in perchloric acid, and centrifuged. The clarified supernatant is analyzed by HPLC. No endogenous compounds interfere with this assay for PIP-1 as no signal is detected in dissected striata from non-treated mice. As shown by FIG. 21A, the striatal penetrance of PIP-1 is at the level of 70 ng/mg of protein. […] Given this blood-brain-barrier penetrance by PIP-1, the compound is assessed in the MPTP mouse model of PD. Mice are given a one-time i.p. injection of PIP-1 followed 30 minutes later by an injection of MPTP (30 mg/kg). PIP-1 is assessed at concentrations of 0 mg/kg, 1 mg/kg, 5 mg/kg, 10 mg/kg, and 50 mg/kg, and five mice are used in each group. After 30 days, the mice are sacrificed and the striatum dissected and analyzed by HPLC to determine the levels of dopamine and various dopamine metabolites. […]

Compound | DNA intercalation [1] | MPP+ levels in the striata of PIP-1-treated vs non-treated mice ([2]; control experiments) | Effect on striatal serotonin levels ([2]; mouse, in vivo)
4-Amino-5-dimethylamino-2-phenyl-2H-pyridazin-3-one [PIP-1] | does not intercalate into DNA |  | 
CN(C)c1cnn(-c2ccccc2)c(=O)c1N [PIP-1, 4-Amino-5-dimethylamino-2-phenyl-2H-pyridazin-3-one] | No such shift | no difference in MPP^+ levels | neither MPTP nor PIP-1 has an effect; also recorded: no effect
